Publication PMC5494137
Results are given in words; binding and its absence hold for the method and conditions named. Binding seen in cells or lysates may run through a third protein.

Chains of the proteins cited; added tags and fusions are not shown. Residues count along the entry.
UniProt Q9UBN7, residues 1-503: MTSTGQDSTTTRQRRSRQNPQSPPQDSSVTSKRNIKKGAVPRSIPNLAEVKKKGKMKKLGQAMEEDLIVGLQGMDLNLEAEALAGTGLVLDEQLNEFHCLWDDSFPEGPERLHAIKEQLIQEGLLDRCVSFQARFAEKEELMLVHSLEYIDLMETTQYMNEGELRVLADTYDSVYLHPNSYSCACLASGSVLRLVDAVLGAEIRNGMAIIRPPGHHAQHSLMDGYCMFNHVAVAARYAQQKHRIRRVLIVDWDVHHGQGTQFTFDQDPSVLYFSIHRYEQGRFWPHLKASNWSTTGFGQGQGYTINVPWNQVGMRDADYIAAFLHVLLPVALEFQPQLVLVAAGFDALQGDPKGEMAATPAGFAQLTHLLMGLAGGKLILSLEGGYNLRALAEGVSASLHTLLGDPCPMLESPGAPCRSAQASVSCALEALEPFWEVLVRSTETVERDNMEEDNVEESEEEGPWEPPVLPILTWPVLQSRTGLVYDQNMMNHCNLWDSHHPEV
UniProt P69566: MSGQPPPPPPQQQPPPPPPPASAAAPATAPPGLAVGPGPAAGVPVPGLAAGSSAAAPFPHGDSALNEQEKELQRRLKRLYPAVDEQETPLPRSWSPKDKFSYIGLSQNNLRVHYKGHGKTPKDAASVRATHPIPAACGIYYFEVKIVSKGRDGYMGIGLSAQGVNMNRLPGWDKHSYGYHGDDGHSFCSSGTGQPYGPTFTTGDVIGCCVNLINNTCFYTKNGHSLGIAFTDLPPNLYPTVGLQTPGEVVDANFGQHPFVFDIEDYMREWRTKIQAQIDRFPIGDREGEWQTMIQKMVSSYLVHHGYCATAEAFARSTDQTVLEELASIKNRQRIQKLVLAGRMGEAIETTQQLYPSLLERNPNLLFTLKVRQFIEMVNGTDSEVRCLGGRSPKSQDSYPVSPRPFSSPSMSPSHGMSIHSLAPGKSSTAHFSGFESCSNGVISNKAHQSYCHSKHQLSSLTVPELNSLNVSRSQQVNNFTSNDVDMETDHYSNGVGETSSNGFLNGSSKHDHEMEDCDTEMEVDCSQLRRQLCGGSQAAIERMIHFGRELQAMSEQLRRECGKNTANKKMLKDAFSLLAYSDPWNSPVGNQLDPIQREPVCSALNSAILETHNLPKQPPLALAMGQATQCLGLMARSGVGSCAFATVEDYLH

Biological target: HA-HDAC6-1-503-FLAG (pcDNA-HA-HDAC6-1-503-FLAG) (UniProt Q9UBN7)
Test: co-IP; FLAG antibody immunoprecipitation of HDAC6 constructs from whole cell extracts of transfected HDAC6 knockout MEFs; blot for endogenous RanBPM; 0.25% NP-40, 100 mM KCl lysis buffer, overnight at 4 °C

binding: no binding
Substance: RanBPM, endogenous in mouse embryonic fibroblasts (from UniProt P69566 1-653)
